Literature values as cited in US20090012052A1, “METHOD FOR TREATING ER+ BREAST CANCER” (Ore Pharmaceuticals Inc., priority 2006, published 2009).

Tested on: T47D
Conditions: read-out: IC50 for antiproliferative effect; estrogen-stimulated T47D cells; cited from earlier work

SMILES: CC/C(=C(\c1ccccc1)c1ccc(OCCN(C)C)cc1)c1ccccc1 [tamoxifen]
- IC50: 11.8 nM
